Results as given in the supplement of paper PMC10849652.
The other results are listed elsewhere or left out.

Chains of the proteins cited; added tags and fusions are not shown. Lines headed by an entry give the natural chain unless they say otherwise; changes in a name come on top.
UniProt P42575: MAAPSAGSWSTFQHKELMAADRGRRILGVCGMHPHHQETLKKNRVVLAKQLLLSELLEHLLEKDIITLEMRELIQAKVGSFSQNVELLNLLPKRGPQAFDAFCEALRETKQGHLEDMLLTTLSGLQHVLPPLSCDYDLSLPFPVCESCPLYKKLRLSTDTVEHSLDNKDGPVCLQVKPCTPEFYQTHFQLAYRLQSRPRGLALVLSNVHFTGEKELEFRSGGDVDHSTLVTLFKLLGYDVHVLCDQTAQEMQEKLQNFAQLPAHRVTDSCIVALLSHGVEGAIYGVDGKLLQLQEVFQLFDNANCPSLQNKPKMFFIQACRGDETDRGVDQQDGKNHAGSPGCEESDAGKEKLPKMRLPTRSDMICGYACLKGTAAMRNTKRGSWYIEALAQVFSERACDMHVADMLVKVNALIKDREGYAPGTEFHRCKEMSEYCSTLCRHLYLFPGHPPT
UniProt P24863: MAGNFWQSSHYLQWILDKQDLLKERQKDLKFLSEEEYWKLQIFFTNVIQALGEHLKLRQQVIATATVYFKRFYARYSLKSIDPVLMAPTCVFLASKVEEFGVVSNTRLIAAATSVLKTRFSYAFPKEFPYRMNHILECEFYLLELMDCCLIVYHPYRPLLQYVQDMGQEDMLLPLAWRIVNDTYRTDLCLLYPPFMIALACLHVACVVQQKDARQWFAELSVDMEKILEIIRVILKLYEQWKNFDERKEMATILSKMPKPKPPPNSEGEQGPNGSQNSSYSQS
UniProt O95273: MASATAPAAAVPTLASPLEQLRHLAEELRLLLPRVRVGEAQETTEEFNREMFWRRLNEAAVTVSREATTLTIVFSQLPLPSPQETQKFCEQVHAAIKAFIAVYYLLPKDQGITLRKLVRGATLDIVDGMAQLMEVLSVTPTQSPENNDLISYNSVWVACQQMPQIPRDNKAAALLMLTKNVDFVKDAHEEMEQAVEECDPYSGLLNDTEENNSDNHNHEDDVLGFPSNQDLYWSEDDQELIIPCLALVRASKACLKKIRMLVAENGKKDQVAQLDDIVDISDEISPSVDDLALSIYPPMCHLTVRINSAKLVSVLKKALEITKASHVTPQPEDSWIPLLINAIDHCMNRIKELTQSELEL
UniProt Q8IX12: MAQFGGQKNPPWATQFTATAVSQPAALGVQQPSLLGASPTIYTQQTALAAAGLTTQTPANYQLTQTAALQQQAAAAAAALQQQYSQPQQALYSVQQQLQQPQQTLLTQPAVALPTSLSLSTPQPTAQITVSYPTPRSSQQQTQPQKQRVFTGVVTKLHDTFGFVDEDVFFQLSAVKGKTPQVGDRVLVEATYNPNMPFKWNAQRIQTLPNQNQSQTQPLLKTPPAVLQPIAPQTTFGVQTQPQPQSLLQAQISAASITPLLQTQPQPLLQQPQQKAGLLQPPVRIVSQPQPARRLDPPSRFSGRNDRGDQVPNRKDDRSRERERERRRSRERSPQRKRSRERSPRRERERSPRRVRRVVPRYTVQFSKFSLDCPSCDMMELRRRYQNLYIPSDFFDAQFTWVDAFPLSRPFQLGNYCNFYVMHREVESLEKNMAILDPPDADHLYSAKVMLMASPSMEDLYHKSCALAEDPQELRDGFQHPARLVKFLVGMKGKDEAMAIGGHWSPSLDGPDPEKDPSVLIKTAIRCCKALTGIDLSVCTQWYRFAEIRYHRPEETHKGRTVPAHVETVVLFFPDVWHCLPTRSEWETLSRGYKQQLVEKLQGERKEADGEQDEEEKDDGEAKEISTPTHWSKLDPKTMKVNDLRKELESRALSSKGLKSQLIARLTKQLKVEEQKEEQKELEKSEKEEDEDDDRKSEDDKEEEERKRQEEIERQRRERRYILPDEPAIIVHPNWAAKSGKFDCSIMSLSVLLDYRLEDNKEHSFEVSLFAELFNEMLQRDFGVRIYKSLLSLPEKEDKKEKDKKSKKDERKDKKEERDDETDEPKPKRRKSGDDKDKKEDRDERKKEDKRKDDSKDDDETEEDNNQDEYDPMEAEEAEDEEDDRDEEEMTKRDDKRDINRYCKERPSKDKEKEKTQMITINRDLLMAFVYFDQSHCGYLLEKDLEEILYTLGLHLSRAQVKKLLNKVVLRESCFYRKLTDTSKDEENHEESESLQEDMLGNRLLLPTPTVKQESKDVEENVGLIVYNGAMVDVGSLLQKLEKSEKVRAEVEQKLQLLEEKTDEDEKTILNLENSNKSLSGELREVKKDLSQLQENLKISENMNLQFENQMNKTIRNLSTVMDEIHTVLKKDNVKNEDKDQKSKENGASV
UniProt P49589: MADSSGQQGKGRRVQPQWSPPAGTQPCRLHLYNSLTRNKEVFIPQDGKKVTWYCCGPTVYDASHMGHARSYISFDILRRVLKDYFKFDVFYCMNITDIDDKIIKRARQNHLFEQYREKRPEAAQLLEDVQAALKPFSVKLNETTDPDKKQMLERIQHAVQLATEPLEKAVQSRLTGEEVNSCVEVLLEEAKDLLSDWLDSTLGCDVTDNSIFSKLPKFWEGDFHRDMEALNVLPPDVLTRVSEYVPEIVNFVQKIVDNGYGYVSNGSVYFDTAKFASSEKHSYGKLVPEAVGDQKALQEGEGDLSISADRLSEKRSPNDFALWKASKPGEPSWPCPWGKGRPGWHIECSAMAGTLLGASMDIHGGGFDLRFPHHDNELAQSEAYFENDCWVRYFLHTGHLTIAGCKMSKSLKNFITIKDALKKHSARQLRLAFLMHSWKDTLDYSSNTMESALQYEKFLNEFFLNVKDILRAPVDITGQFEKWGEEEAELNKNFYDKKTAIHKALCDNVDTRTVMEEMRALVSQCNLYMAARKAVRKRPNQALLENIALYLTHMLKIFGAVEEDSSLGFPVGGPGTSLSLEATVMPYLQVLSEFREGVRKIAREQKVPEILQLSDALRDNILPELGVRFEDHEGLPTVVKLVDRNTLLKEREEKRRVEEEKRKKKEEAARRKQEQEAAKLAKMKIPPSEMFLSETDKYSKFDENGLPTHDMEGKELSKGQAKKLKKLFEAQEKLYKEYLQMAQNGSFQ
UniProt Q4G0S7: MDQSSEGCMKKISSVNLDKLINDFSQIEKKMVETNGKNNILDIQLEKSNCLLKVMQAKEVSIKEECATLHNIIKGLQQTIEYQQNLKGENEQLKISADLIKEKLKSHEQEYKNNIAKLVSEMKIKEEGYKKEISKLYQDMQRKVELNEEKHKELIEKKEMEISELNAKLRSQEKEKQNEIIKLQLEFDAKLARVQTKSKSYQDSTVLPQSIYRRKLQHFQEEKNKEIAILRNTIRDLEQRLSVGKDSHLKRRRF
UniProt O14618: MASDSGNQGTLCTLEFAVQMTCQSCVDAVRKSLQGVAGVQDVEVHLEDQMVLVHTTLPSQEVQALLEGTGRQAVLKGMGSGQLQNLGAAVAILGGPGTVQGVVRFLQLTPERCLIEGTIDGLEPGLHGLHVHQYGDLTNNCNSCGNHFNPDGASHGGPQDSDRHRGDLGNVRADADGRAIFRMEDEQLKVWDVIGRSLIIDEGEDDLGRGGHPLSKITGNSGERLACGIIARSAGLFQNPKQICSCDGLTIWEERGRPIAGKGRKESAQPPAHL
UniProt Q8N4T8: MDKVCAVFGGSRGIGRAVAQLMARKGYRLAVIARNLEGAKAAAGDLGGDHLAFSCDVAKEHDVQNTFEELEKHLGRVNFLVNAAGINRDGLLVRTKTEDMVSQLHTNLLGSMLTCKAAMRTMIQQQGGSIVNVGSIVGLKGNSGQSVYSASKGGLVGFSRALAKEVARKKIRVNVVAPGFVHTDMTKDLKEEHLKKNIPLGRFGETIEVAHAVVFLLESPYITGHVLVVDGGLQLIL
UniProt Q96A33: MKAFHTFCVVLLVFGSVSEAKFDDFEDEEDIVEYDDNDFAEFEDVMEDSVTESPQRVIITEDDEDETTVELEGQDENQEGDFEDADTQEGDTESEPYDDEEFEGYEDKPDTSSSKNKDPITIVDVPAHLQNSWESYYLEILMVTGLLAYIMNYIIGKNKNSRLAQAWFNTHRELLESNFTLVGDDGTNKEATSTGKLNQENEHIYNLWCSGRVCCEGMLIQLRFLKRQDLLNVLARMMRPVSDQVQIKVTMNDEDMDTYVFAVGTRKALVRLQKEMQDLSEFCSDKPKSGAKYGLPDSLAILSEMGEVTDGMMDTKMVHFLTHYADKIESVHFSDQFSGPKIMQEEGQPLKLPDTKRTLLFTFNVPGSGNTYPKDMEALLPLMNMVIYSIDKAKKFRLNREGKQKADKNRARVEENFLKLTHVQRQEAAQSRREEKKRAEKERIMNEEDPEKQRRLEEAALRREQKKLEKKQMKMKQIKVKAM
UniProt A6NHX0: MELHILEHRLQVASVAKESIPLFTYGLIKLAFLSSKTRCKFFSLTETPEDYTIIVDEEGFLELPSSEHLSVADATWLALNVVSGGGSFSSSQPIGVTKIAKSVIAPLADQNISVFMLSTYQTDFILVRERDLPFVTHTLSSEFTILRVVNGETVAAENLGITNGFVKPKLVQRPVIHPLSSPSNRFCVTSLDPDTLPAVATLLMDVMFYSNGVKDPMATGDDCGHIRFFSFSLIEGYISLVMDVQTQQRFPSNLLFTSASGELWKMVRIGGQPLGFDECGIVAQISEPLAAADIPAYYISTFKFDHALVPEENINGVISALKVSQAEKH
UniProt Q75N03: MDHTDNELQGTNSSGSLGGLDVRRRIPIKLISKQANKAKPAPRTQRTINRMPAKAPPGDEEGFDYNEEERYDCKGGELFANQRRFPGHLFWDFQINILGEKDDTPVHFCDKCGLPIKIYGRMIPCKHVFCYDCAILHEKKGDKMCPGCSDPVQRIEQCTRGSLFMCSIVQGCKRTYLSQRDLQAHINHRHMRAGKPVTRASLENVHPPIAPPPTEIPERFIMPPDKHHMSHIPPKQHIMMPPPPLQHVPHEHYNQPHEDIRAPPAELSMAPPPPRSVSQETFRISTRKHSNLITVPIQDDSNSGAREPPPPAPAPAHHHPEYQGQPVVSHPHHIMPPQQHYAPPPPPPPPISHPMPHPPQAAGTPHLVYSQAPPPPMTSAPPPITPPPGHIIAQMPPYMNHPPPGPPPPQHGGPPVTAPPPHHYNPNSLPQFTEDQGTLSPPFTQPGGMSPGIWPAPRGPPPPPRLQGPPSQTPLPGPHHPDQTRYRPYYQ
UniProt O95067, whole entry, looked up: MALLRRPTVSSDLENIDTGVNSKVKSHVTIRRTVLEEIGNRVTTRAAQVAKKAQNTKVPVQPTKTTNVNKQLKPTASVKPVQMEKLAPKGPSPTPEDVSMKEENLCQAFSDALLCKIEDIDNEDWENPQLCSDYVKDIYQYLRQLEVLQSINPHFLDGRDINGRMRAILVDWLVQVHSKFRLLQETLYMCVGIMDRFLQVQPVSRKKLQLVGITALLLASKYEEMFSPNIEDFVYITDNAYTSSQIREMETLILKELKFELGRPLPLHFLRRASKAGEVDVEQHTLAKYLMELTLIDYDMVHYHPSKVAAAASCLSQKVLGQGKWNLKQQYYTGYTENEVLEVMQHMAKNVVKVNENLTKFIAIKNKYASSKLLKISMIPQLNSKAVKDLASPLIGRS
UniProt O95810: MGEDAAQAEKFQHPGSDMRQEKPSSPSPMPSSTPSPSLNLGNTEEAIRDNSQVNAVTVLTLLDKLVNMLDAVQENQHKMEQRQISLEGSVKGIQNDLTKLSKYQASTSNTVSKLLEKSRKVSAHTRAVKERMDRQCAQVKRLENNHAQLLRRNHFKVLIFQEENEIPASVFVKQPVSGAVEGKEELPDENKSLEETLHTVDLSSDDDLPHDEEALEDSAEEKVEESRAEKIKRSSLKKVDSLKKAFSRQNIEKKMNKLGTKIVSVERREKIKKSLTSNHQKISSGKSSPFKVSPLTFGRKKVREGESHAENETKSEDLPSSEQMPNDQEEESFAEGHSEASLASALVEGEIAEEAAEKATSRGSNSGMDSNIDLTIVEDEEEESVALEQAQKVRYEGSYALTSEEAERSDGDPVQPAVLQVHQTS
UniProt P83916, whole entry, looked up: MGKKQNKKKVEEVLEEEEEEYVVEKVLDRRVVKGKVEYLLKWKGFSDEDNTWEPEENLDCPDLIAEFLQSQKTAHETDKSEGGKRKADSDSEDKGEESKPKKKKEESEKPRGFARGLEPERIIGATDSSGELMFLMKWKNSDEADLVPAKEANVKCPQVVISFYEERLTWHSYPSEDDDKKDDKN
UniProt P42574: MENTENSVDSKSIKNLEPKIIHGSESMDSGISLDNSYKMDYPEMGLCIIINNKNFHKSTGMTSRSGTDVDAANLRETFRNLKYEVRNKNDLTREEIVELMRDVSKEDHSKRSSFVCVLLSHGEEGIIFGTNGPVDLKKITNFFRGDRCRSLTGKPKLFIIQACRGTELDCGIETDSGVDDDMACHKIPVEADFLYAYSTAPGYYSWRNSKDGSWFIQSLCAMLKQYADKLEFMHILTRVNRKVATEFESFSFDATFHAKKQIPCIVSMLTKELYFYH
UniProt P19397: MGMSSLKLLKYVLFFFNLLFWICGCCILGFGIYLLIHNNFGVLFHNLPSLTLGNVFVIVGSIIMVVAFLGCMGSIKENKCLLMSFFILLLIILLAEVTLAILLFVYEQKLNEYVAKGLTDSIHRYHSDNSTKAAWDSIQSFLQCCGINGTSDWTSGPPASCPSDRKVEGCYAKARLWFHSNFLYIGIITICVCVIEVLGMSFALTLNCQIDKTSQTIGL

Each target was assayed with NCC(=O)Nc1ccc(-n2nc(C(F)(F)F)cc2-c2ccc3c(ccc4ccccc43)c2)cc1 (assay: log2 fold change, soluble protein after heating vs DMSO (PISA); higher = thermal stabilisation; K562 lysate, 10 uM; active = over 0.2 and 3.5 SD of the protein, either way, in both replicates (recomputed)).
Summary of the method: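 Soluble protein was defined as the supernatant remaining after 21,000xg for 90 min, following pooling of heated aliquots and adjustment to 0.5% NP-40 at 4°C. Before that, crude K562 extract at 1 mg/mL protein in PBS pH 7.4 with 1 mM MgCl2 was treated with 10 μM compound for 30 min and heated for 3 min across 48°C-58°C. Quantification used TMTpro 16plex LC-MS/MS with channel sums equalised, and values are log-two fold changes in thermal stability relative to solvent controls from duplicates.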
CASP2 (UniProt P42575) was tested, and the log2 fold change was inactive: 0. With CCNC (UniProt P24863) the log2 fold change was inactive: 0.159. For CCDC51 (UniProt Q96ER9), the log2 fold change was inactive: 0.002. In the case of CCNDBP1 (UniProt O95273), the log2 fold change is reported as inactive: 0.003. With CCAR1 (UniProt Q8IX12) the log2 fold change was inactive: 0.008. In the case of CARS isoform 3 (UniProt P49589), the log2 fold change is reported as inactive: 0.018. In the case of CCDC152 (UniProt Q4G0S7), the log2 fold change is reported as inactive: -0.015. With CASP10 isoform 4 (UniProt Q92851) the log2 fold change was inactive: -0.001. For CCDC102A (UniProt Q96A19), the log2 fold change was inactive: -0.123. For CD55 isoform 7 (UniProt P08174), the log2 fold change was inactive: 0.002. CCS (UniProt O14618) was tested, and the log2 fold change was inactive: -0.03. With CBR4 (UniProt Q8N4T8) the log2 fold change was inactive: -0.02. With CCDC47 (UniProt Q96A33) the log2 fold change was inactive: 0.002. In the case of CASTOR2 (UniProt A6NHX0), the log2 fold change is reported as inactive: 0.169. CBLL1 (UniProt Q75N03) was tested, and the log2 fold change was inactive: 0.017. CCNB2 (UniProt O95067) was tested, and the log2 fold change was inactive: 0.01. For CBR1 (UniProt P16152), the log2 fold change was inactive: -0.01. With CCT5 (UniProt P48643) the log2 fold change was inactive: -0.012. CAVIN2 (UniProt O95810) was tested, and the log2 fold change was inactive: 0.034. With CBX1 (UniProt P83916) the log2 fold change was inactive: 0.029. For CASP3 (UniProt P42574), the log2 fold change was inactive: -0.031. In the case of CD53 (UniProt P19397), the log2 fold change is reported as inactive: 0.037. In the case of CCT6B isoform 3 (UniProt Q92526), the log2 fold change is reported as inactive: 0.069.
